# Patent US20190202774A1, “BIARYL COMPOUNDS AS ANTIMICROBIAL AND CHEMOTHERAPEUTIC AGENTS” (priority 2015, published 2019)
# Structures can show the parent of a compound that is named as a salt.
# System: MRSA strain, USA 300
# Assay: Spontaneous resistance acquisition, plate-based assay
# Assay type: cell-based, Staphylococcus aureus
# Conditions: 72-h, stationary phase USA 300
Structure (SMILES),Frequency of Resistance Development (2× MIC),Frequency of Resistance Development (4× MIC),Frequency of Resistance Development (8× MIC)
Oc1c(Cl)cc(Cl)cc1-c1cc(Cl)cc(Cl)c1O [C59],No colonies,No colonies,No colonies
"CN[C@H](CC(C)C)C(=O)N[C@H]1C(=O)N[C@@H](CC(N)=O)C(=O)N[C@H]2C(=O)N[C@H]3C(=O)N[C@H](C(=O)N[C@H](C(=O)O)c4cc(O)cc(O)c4-c4cc3ccc4O)[C@H](O)c3ccc(c(Cl)c3)Oc3cc2cc(c3O[C@@H]2O[C@H](CO)[C@@H](O)[C@H](O)[C@H]2O[C@H]2C[C@](C)(N)[C@H](O)[C@H](C)O2)Oc2ccc(cc2Cl)[C@H]1O [Vancomycin hydrochloride, reference compound]",1.83 × 10^−8 ± 7.10 × 10^−9,1.56 × 10^−9 ± 7.12 × 10^−10,5.77 × 10^−10 ± 2.77 × 10^−10
